# The supplement of paper PMC11150407
# In all, about 2,100 compounds went through this assay and about 180 (8.6%) showed an effect of 50% or more. Some of the results follow.
# Test system: MOLM1 and UCSD/AML1 (averaged)
# Test: cell viability relative to DMSO control (POC); higher = less growth inhibition
# Settings: 1 µM; 72 h
# Method: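 Primary viability screen in the 3q26 EVI1-high AML cell lines MOLM1 and UCSD/AML1 (1.5e3 cells/well, 384-well), compounds at 1 uM for 72 h. ATP CellTiter-Glo read-out given as percent of viable cells over DMSO control (POC), averaged over duplicates. DMSO was the negative control and 5 uM etoposide the positive control. This mapping covers the MicroSource Spectrum and Selleck anticancer libraries (drug names).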
row,Compound,cell viability
1,CCc1ccc(CCOc2ccc(CC3SC(=O)NC3=O)cc2)nc1 (stereo unspecified),96.1%
2,CCc1ccc(CCOc2ccc(CC3SC(=O)NC3=O)cc2)nc1 (stereo unspecified) [Pioglitazone (Actos)],94.3%
3,CC(=O)C1=C(O)C=C2Oc3c(C(C)=O)c(O)c(C)c(O)c3C2(C)C1=O (stereo in doubt),113%
4,CO[C@H]1/C=C/O[C@@]2(C)Oc3c(C)c(O)c4c(O)c(c(/C=N/N5CCN(C)CC5)c(O)c4c3C2=O)NC(=O)/C(C)=C\C=C\[C@H](C)[C@H](O)[C@@H](C)[C@@H](O)[C@@H](C)[C@H](OC(C)=O)[C@@H]1C,103%
5,Cc1c(Cl)cccc1Nc1ccccc1C(=O)O,90.7%
6,CCCSc1ccc2[nH]c(NC(=O)OC)nc2c1,12.4%
7,C[C@@H]1CC[C@H]2C(C)(C)[C@H]3C[C@@]12CC[C@@]3(C)O,105%
8,CC[C@H]1OC(=O)[C@H](C)[C@@H](O[C@H]2C[C@@](C)(OC)[C@@H](O)[C@H](C)O2)[C@H](C)[C@@H](O[C@@H]2O[C@H](C)C[C@H](N(C)C)[C@H]2O)[C@](C)(O)C[C@@H](C)C(=O)[C@H](C)[C@@H](O)[C@]1(C)O,98.2%
9,CC1=C(/C=C/C(C)=C/C=C/C(C)=C/C=C/C=C(C)/C=C/C=C(C)/C=C/C2=C(C)CCCC2(C)C)C(C)(C)CCC1 [beta-CAROTENE],101%
10,CC1=CC(=O)[C@H]2C(C)(C)CCC[C@]2(C)[C@@]1(O)CCc1ccoc1,110%
11,CC(=O)OCC(=O)[C@H]1CC[C@H]2[C@@H]3CC=C4C[C@@H](O)CC[C@]4(C)[C@H]3CC[C@]12C,94.9%
12,c1ccc(CC2=NCCN2)cc1,118%
13,NCCCCC(=O)O,103%
14,CC(C)(Oc1ccc(CCNC(=O)c2ccc(Cl)cc2)cc1)C(=O)O,102%
15,OCCN1CCN(CCCN2c3ccccc3Sc3ccc(C(F)(F)F)cc32)CC1,91.3%
16,O=C(O)CCc1nc(-c2ccccc2)c(-c2ccccc2)o1,45.5%
17,Clc1ccc2c(c1)C(N1CCNCC1)=Nc1ccccc1O2,95.9%
18,CC(C)[C@@H](C)/C=C/[C@@H](C)[C@H]1CC[C@H]2C3=CC=C4C[C@@H](O)CC[C@]4(C)[C@H]3CC[C@]12C,98.1%
19,O=C(c1cc(Cc2n[nH]c(=O)c3ccccc23)ccc1F)N1CCN(C(=O)C2CC2)CC1 [Olaparib (AZD2281)],56.5%
20,O=C1c2ccccc2C(=O)C1c1ccccc1,107%
21,CCC(=O)O[C@H]1CC[C@H]2[C@@H]3CCc4cc(O)ccc4[C@H]3CC[C@]12C,95.4%

# Reformatted as tab-separated lines: part of the list above.
row	Compound	cell viability
2	CCc1ccc(CCOc2ccc(CC3SC(=O)NC3=O)cc2)nc1 (stereo unspecified) [Pioglitazone (Actos)]	94.3%
12	c1ccc(CC2=NCCN2)cc1	118%
15	OCCN1CCN(CCCN2c3ccccc3Sc3ccc(C(F)(F)F)cc32)CC1	91.3%
20	O=C1c2ccccc2C(=O)C1c1ccccc1	107%
21	CCC(=O)O[C@H]1CC[C@H]2[C@@H]3CCc4cc(O)ccc4[C@H]3CC[C@]12C	95.4%

# Next part:

row,Compound,cell viability
1,COc1ccc(-c2coc3cc(O)ccc3c2=O)cc1,108%
2,CS(=O)(=O)c1ccc(C(=O)Nc2ccc(Cl)c(-c3ccccn3)c2)c(Cl)c1 [Vismodegib (GDC-0449)],102%
3,CC(C)C[C@H](NC(=O)[C@H](Cc1ccccc1)NC(=O)c1cnccn1)B(O)O [Bortezomib (Velcade)],0.861%
4,NC(=O)c1ccccc1O,102%
5,CC1(C)CCC(c2ccc(Cl)cc2)=C(CN2CCN(c3ccc(C(=O)NS(=O)(=O)c4ccc(N[C@H](CCN5CCOCC5)CSc5ccccc5)c(S(=O)(=O)C(F)(F)F)c4)cc3)CC2)C1 [ABT-263 (Navitoclax)],6.23%
6,O=C(NOCC1CC1)c1ccc(F)c(F)c1Nc1ccc(I)cc1Cl,33.2%
7,Nc1nc(F)nc2c1ncn2[C@@H]1O[C@H](COP(=O)(O)O)[C@@H](O)[C@@H]1O [Fludarabine Phosphate (Fludara)],44.2%
8,CCOC(=O)N1CCC(=C2c3ccc(Cl)cc3CCc3cccnc32)CC1,104%
9,COC(=O)[C@H](c1ccccc1Cl)N1CCc2sccc2C1,101%
10,C[C@]12CCC(=O)C=C1CC[C@@H]1[C@@H]2C(=O)C[C@@]2(C)[C@H]1CC[C@]2(O)C(=O)CO,96.4%
11,CN(C)[C@@H]1C(O)=C(C(N)=O)C(=O)[C@@]2(O)C(O)=C3C(=O)c4c(O)cccc4[C@@](C)(O)[C@H]3C[C@@H]12,97.8%
12,CC(C)NCC(O)COc1cccc2ccccc12 (racemic),59.6%
13,CS(=O)(=O)c1ccc([C@@H](O)[C@@H](CF)NC(=O)C(Cl)Cl)cc1,92.8%
14,CCN(CC)CCCC(C)Nc1ccnc2cc(Cl)ccc12 (stereo unspecified),103%
15,CCCCCC1C(=O)CCC1CC(=O)OC (stereo unspecified),107%
16,CC(C)c1nc(N(C)S(C)(=O)=O)nc(-c2ccc(F)cc2)c1/C=C/[C@@H](O)C[C@@H](O)CC(=O)O,79%
17,C=C(CC)C(=O)c1ccc(OCC(=O)O)c(Cl)c1Cl,99.5%
18,Nc1ccc(S(=O)(=O)NC(=O)c2ccccc2)cc1,105%
19,Oc1ccc2c(c1)OC[C@]1(O)Cc3cc(O)c(O)cc3[C@H]21,105%
20,C=C(C)[C@@H]1CC[C@]2(C(=O)O)CC[C@]3(C)[C@H](CC[C@@H]4[C@@]5(C)CC[C@H](O)C(C)(C)[C@@H]5CC[C@]43C)[C@@H]12,92.2%
21,C1N2CN3CN1CN(C2)C3,97.5%

row,Compound,cell viability
1,O=C(O)C1=C[C@@H](O)[C@@H](O)[C@H](O)C1,103%
2,c1ccc2c(c1)CCCC2C1=NCCN1 (stereo unspecified),115%
3,C=CCc1ccc(O)c(OC)c1,101%
4,OC[C@@H](O)[C@@H](O)[C@H](O)[C@H](O)CO,103%
5,CCn1cc(C(=O)O)c(=O)c2cc(F)c(N3CCNCC3)nc21,102%
6,CCCc1ncc(C[n+]2ccccc2C)c(N)n1,103%
7,CC(=O)N[C@@H](Cc1c[nH]c2ccccc12)C(=O)O,106%
8,CC(C(=O)O)c1cccc(Oc2ccccc2)c1 (stereo unspecified),101%
9,O=C(O)CN(CCN(CC(=O)O)CC(=O)O)CC(=O)O.[Na+].[Na+].[Na+],99.6%
10,COC(=O)C[C@H]1C(C)(C)[C@@H](O)[C@@H]2CC3=C4C=C(OC)O[C@@H](c5ccoc5)[C@]4(C)CCC3[C@@]1(C)C2=O (stereo partly drawn) [3-DEOXO-3beta-HYDROXYMEXICANOLIDE 16-ENOL ETHER],100%
11,O=C1OC(c2ccc(O)cc2)(c2ccc(O)cc2)c2ccccc21,110%
12,COc1cc(OC)c2c(=O)cc(-c3ccccc3)oc2c1,90.2%
13,CC1(C)CC[C@]2(C(=O)O)CC[C@]3(C)C(=CC[C@@H]4[C@@]5(C)CC[C@H](O)[C@@](C)(CO)[C@@H]5CC[C@]43C)[C@@H]2C1,89.4%
14,CC(C)/C(O)=C1/C(=O)O[C@@H](c2ccoc2)[C@]2(C)C(O)[C@@H](O)[C@@]34OC5(C)OC67CC(C)(C(O)[C@]6(O)[C@@H](O)[C@]3(O5)C12)[C@H](CC(=O)O)[C@]74C (stereo partly specified),93.3%
15,O=C(NOC[C@H](O)CO)c1ccc(F)c(F)c1Nc1ccc(I)cc1F,49.5%
16,O=C1CC2(CCCC2)CC(=O)N1CCCCN1CCN(c2ncccn2)CC1,103%
17,CC[C@H]1OC(=O)[C@H](C)[C@@H](O[C@H]2C[C@@](C)(OC)[C@@H](O)[C@H](C)O2)[C@H](C)[C@@H](O[C@@H]2O[C@H](C)C[C@H](N(C)C)[C@H]2O)[C@](C)(O)C[C@@H](C)[C@@H]2N[C@@H](COCCOC)O[C@H]([C@H]2C)[C@]1(C)O,94.2%
18,O=c1cc[nH]c(=S)[nH]1,101%
19,CC(=O)O[C@@H]1CC2C(C)(C)C(=O)C3OC3[C@]2(C)C2CC[C@@]3(C)[C@H](c4ccoc4)OC(=O)C4OC43[C@@]21C (stereo partly specified),95.3%
20,Nc1ccc(S(=O)(=O)Nc2ccnn2-c2ccccc2)cc1,107%
21,CN1CCN(CCOc2cc(OC3CCOCC3)c3c(Nc4c(Cl)ccc5c4OCO5)ncnc3c2)CC1 [Saracatinib (AZD0530)],47.7%

# Single entries from the entries so far.
# CN(C)[C@@H]1C(O)=C(C(N)=O)C(=O)[C@@]2(O)C(O)=C3C(=O)c4c(O)cccc4[C@@](C)(O)[C@H]3C[C@@H]12 – cell viability: 97.8%
# CC(C)c1nc(N(C)S(C)(=O)=O)nc(-c2ccc(F)cc2)c1/C=C/[C@@H](O)C[C@@H](O)CC(=O)O – cell viability: 79%

# (cont.)

row,Compound,cell viability
1,CO/N=C(\C(=O)N[C@@H]1C(=O)N2C(C(=O)O)=C(COC(N)=O)CS[C@H]12)c1ccco1,104%
2,CCC(=O)c1c(O)cc(O)cc1O,84.3%
3,CC1Cc2ccccc2N1NC(=O)c1ccc(Cl)c(S(N)(=O)=O)c1 (stereo unspecified),96.4%
4,CC(C)C[C@@H]1NC(=O)[C@H](CCCN)NC(=O)[C@H](C(C)C)NC(=O)[C@H](Cc2ccc(O)cc2)N[C@@H](CCC(=O)O)C(=O)N[C@@H](CC(N)=O)C(=O)[C@@H](Cc2ccccc2)NC(=O)[C@H](Cc2ccccc2)NC(=O)[C@@H]2CCCN2C(=O)[C@@H](Cc2ccccc2)NC1=O,13%
5,C[C@H](CCC(=O)O)[C@H]1CC[C@H]2[C@@H]3CC[C@@H]4C[C@H](O)CC[C@]4(C)[C@H]3C[C@H](O)[C@]12C,110%
6,COc1ccc2cc(C(C)C(=O)O)ccc2c1 (stereo unspecified),70.4%
7,Cc1cc(CC(=O)O)n(C)c1C(=O)c1ccc(Cl)cc1,97%
8,CCCCCCCCCCCCCCCC(=O)O[C@@H]1[C@@H](O)[C@@H](O)[C@@H]([C@H](NC(=O)[C@@H]2C[C@@H](CCC)CN2C)[C@H](C)Cl)O[C@@H]1SC,95.3%
9,O=C(O)C1=CCCNC1,111%
10,COC(=O)CC[C@@H](C)[C@H]1CC[C@H]2[C@@H]3[C@H](O)C[C@@H]4C[C@H](O)CC[C@]4(C)[C@H]3C[C@H](O)[C@]12C,95.2%
11,CC12CCC(CC1)C(C)(C)O2,89.1%
12,C[C@@H]1C[C@H]2[C@@H]3CCC4=CC(=O)C=C[C@]4(C)[C@@]3(F)[C@@H](O)C[C@]2(C)[C@@]1(O)C(=O)CO [Dexamethasone],57.3%
13,C[C@@H]1C[C@H]2[C@@H]3CCC4=CC(=O)C=C[C@]4(C)[C@@]3(F)[C@@H](O)C[C@]2(C)[C@@]1(O)C(=O)CO,73%
14,OC1(c2ccc(Cl)c(C(F)(F)F)c2)CCN(CCCC(c2ccc(F)cc2)c2ccc(F)cc2)CC1,85.5%
15,O=C(O)CCCc1ccccc1,90.8%
16,NC1=NCCN1CC(=O)O,95.6%
17,CC1(C)O[C@@H]2C[C@H]3[C@@H]4CCC5=CC(=O)C=C[C@]5(C)[C@@]4(F)[C@@H](O)C[C@]3(C)[C@]2(C(=O)CO)O1 [Triamcinolone Acetonide],70.6%
18,CC1(C)O[C@@H]2C[C@H]3[C@@H]4CCC5=CC(=O)C=C[C@]5(C)[C@@]4(F)[C@@H](O)C[C@]3(C)[C@]2(C(=O)CO)O1,71.1%
